Experimental data: PubChem BioAssay AID1259405 (NCATS, 2018)
Screen: 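Mouse-designed siRNAs used to find CHO productivity engineering targets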 (primary screen). System: Chinese hamster CHO-K1 ovary cells with stable secreted eGFP expression. Reagent: single siRNA against mouse genes, 0.8 pmol siRNA per well (2 µl of 400 nM stock). Time to read-out: 3 days. Measurement: 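Per-well intracellular GFP measured by laser scanning cytometry, plus viability from ATP luminescence, each relative to plate median of non-targeting control wells, in %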. Reading the numbers: GFP, % of control: higher = more GFP per well, higher productivity; viability (ATP), % of control: higher = more viable cells (more ATP). Active means: 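a knock-down is called active if GFP reaches 120% or more of non-targeting control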.
Here is an unselected part of about 50,000 reagents. Over the whole deposit, about 4,000 (8%) were called active. 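Mouse siRNA library applied to hamster cells; one well for each siRNA.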 The numbers tell different reagents against one gene apart. No sequences are given here.

The first 3 records as a preview:
Hsf2 (GeneID 15500) #1: GFP, % of control = 90.3; viability (ATP), % of control = 107; Outcome = inactive
Hsf2 (GeneID 15500) #2: GFP, % of control = 44.9; viability (ATP), % of control = 72; Outcome = inactive
Hsf2 (GeneID 15500) #3: GFP, % of control = 98.4; viability (ATP), % of control = 108; Outcome = inactive

The listing, from the start:
Hsf2 (GeneID 15500) #1: GFP, % of control = 90.3; viability (ATP), % of control = 107; Outcome = inactive
Hsf2 (GeneID 15500) #2: GFP, % of control = 44.9; viability (ATP), % of control = 72; Outcome = inactive
Hsf2 (GeneID 15500) #3: GFP, % of control = 98.4; viability (ATP), % of control = 108; Outcome = inactive
Tas2r126 (GeneID 387353) #1: GFP, % of control = 70.2; viability (ATP), % of control = 104; Outcome = inactive
Tas2r126 (GeneID 387353) #2: GFP, % of control = 99.1; viability (ATP), % of control = 83.4; Outcome = inactive
Tas2r126 (GeneID 387353) #3: GFP, % of control = 42.1; viability (ATP), % of control = 65.6; Outcome = inactive
Rab11fip2 (GeneID 74998) #1: GFP, % of control = 86.7; viability (ATP), % of control = 81.6; Outcome = inactive
Rab11fip2 (GeneID 74998) #2: GFP, % of control = 79.6; viability (ATP), % of control = 68.9; Outcome = inactive
Rab11fip2 (GeneID 74998) #3: GFP, % of control = 72.8; viability (ATP), % of control = 75.7; Outcome = inactive
Acss3 (GeneID 380660) #1: GFP, % of control = 28.5; viability (ATP), % of control = 45.4; Outcome = inactive
Acss3 (GeneID 380660) #2: GFP, % of control = 66.7; viability (ATP), % of control = 82.1; Outcome = inactive
Acss3 (GeneID 380660) #3: GFP, % of control = 53.1; viability (ATP), % of control = 63.5; Outcome = inactive
Chd8 (GeneID 67772) #1: GFP, % of control = 41.5; viability (ATP), % of control = 25.8; Outcome = inactive
Chd8 (GeneID 67772) #2: GFP, % of control = 60.7; viability (ATP), % of control = 44.9; Outcome = inactive
Chd8 (GeneID 67772) #3: GFP, % of control = 47; viability (ATP), % of control = 68.6; Outcome = inactive
Chrna2 (GeneID 110902) #1: GFP, % of control = 57.7; viability (ATP), % of control = 62.7; Outcome = inactive
Chrna2 (GeneID 110902) #2: GFP, % of control = 57.7; viability (ATP), % of control = 54.8; Outcome = inactive
Chrna2 (GeneID 110902) #3: GFP, % of control = 66.8; viability (ATP), % of control = 63.6; Outcome = inactive
Rapgef1 (GeneID 107746) #1: GFP, % of control = 76.7; viability (ATP), % of control = 95.3; Outcome = inactive
Rapgef1 (GeneID 107746) #2: GFP, % of control = 56.2; viability (ATP), % of control = 64.2; Outcome = inactive
Rapgef1 (GeneID 107746) #3: GFP, % of control = 70.7; viability (ATP), % of control = 69.5; Outcome = inactive
Rbm47 (GeneID 245945) #1: GFP, % of control = 94.8; viability (ATP), % of control = 76.5; Outcome = inactive
Rbm47 (GeneID 245945) #2: GFP, % of control = 91.9; viability (ATP), % of control = 83.4; Outcome = inactive
Rbm47 (GeneID 245945) #3: GFP, % of control = 89.9; viability (ATP), % of control = 114; Outcome = inactive
Pbdc1 (GeneID 67683) #1: GFP, % of control = 118; viability (ATP), % of control = 81.7; Outcome = inactive
Pbdc1 (GeneID 67683) #2: GFP, % of control = 35.1; viability (ATP), % of control = 36.9; Outcome = inactive
Pbdc1 (GeneID 67683) #3: GFP, % of control = 88.7; viability (ATP), % of control = 101; Outcome = inactive
Ddx19b (GeneID 234733) #1: GFP, % of control = 94.5; viability (ATP), % of control = 52.2; Outcome = inactive
Ddx19b (GeneID 234733) #2: GFP, % of control = 68.9; viability (ATP), % of control = 41.8; Outcome = inactive
Ddx19b (GeneID 234733) #3: GFP, % of control = 73.4; viability (ATP), % of control = 76.1; Outcome = inactive
Clcnkb (GeneID 56365) #1: GFP, % of control = 87.7; viability (ATP), % of control = 91.4; Outcome = inactive
Clcnkb (GeneID 56365) #2: GFP, % of control = 62.4; viability (ATP), % of control = 61.2; Outcome = inactive
Clcnkb (GeneID 56365) #3: GFP, % of control = 117; viability (ATP), % of control = 70.8; Outcome = inactive
Madcam1 (GeneID 17123) #1: GFP, % of control = 67.8; viability (ATP), % of control = 68.5; Outcome = inactive
Madcam1 (GeneID 17123) #2: GFP, % of control = 66.5; viability (ATP), % of control = 36.2; Outcome = inactive
Madcam1 (GeneID 17123) #3: GFP, % of control = 89.7; viability (ATP), % of control = 58.9; Outcome = inactive
Serpini1 (GeneID 20713) #1: GFP, % of control = 106; viability (ATP), % of control = 110; Outcome = inactive
Serpini1 (GeneID 20713) #2: GFP, % of control = 46.8; viability (ATP), % of control = 48.4; Outcome = inactive
Serpini1 (GeneID 20713) #3: GFP, % of control = 107; viability (ATP), % of control = 86.7; Outcome = inactive
Rae1 (GeneID 66679) #1: GFP, % of control = 84.6; viability (ATP), % of control = 103; Outcome = inactive
Rae1 (GeneID 66679) #2: GFP, % of control = 78.4; viability (ATP), % of control = 83; Outcome = inactive
Rae1 (GeneID 66679) #3: GFP, % of control = 47; viability (ATP), % of control = 51.2; Outcome = inactive
